Experimental data reported in publication PMC5508205.
No constants are given. Whether binding was seen depends on the method and setting. Binding seen in cells or lysates may run through a third protein. Some binding calls cover weakened binding; strength is not graded here.

Chains of the proteins cited; added tags and fusions are not shown. Residues count along the entry.
UniProt P46531, residues 1754-2555: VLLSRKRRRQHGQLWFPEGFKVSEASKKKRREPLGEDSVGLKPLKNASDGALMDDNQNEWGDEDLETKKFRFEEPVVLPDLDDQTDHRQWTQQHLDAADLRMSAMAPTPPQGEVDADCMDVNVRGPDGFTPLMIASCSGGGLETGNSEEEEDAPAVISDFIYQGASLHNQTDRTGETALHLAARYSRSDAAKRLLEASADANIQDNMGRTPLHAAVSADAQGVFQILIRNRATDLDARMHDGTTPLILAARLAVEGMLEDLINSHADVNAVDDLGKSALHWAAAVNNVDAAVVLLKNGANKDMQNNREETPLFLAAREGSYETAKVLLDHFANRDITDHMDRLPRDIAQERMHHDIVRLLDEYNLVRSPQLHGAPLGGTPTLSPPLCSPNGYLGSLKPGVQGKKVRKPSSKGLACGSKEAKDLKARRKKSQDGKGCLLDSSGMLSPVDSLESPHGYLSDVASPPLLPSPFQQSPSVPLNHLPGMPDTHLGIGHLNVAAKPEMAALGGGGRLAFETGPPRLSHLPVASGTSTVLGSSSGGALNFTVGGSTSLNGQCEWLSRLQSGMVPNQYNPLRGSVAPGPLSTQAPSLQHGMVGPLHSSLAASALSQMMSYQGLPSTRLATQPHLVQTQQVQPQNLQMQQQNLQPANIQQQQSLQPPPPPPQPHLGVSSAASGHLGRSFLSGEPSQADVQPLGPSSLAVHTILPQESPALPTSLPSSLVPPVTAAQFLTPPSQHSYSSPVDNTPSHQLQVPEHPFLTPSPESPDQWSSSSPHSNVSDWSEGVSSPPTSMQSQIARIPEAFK
UniProt P35222: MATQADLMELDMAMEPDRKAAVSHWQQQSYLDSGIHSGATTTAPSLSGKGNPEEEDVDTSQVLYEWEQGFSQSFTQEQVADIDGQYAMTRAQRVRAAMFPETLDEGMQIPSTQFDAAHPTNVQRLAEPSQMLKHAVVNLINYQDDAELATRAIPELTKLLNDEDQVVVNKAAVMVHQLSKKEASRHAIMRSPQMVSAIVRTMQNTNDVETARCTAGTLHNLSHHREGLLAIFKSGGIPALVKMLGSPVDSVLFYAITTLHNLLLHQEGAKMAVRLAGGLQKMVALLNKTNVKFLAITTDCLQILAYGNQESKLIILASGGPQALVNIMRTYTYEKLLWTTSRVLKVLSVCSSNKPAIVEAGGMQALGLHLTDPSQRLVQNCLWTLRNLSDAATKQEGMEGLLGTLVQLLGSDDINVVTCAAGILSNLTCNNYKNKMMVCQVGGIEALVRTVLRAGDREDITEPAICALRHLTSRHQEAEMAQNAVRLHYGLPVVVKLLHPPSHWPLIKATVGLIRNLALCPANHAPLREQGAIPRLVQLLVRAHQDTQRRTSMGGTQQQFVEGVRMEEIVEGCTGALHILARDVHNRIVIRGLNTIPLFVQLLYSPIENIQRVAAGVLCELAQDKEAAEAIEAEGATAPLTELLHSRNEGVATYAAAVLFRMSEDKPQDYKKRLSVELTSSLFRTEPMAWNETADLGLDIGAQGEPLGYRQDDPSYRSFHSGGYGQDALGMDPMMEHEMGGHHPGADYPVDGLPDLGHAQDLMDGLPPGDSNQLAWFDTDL

Tests used:
[1] = biological target: T1, ERG (ETS-related gene) (human (endogenous in HUVEC)) (UniProt P11308); test: co-IP; anti-ERG rabbit polyclonal antibody (H-95) on protein A sepharose beads with pre-cleared confluent HUVEC lysate (20 mM Tris-HCl pH 7.5, 150 mM NaCl, 0.5% Triton X-100), 4 °C; blots with anti-ERG, anti-β-catenin and anti-NICD; control rabbit IgG
T1 sequence: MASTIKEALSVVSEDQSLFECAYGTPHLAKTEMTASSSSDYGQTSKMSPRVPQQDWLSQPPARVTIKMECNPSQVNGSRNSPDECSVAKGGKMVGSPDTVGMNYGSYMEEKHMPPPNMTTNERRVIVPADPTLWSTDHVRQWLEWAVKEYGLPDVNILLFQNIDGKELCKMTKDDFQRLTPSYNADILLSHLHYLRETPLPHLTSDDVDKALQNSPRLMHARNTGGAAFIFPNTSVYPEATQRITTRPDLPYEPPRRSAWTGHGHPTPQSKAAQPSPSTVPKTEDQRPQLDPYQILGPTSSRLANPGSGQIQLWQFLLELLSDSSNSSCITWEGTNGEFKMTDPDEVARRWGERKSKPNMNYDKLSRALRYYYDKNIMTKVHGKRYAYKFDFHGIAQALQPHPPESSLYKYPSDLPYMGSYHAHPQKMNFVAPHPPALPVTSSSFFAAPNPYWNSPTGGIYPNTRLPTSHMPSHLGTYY

[2] = biological target: T1, ERG (ETS-related gene) (human (endogenous in HUVEC)); test: proximity ligation; Duolink in situ PLA on fixed, permeabilised confluent HUVEC with rabbit anti-ERG and mouse anti-β-catenin; unstimulated, or Ang1 (250 ng/ml, 30 min), with or without pre-treatment with LY294002 (20 μM) or Akt inhibitor IV (8 μM)

binding [1] | binding [2] | Substance
binds |  | Notch intracellular domain (NICD) (from UniProt P46531 1754-2555) (domain or fragment)
binds | binds | β-catenin (from UniProt P35222 1-781)
